Test results from the supplement of paper PMC7125110.
± gives the standard error. The uncertainty is large for many entries.

B1: glmS ribozyme (parent)
chain: AUAAAAGCGCCAGAACUACAGAAAUGUAGUUGACGAGGAGGAGGUUUAUCGAAUUUUCGGCGGAUGCCUCCAAA

Variants of: B1
Assay: kcat; higher = faster cleavage; RNA array
Conditions: with glucosamine-6-phosphate
In short: (§1)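 Tiles of sequenced MiSeq chips were imaged over ~14 h at 37 °C. On them, barcoded ribozyme variants had been transcribed in situ by E. coli RNA polymerase and were tracked via a hybridised Cy3 probe while glucosamine-6-phosphate (40 μM to 10 mM) in HEPES/KCl/Mg(OAc)2 buffer flowed in. Per-tile medians, normalised to baseline and to non-cleaving reference variants, were fit to one- or two-exponential decays for kobs, and weighted Michaelis–Menten fits gave kcat and KM.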
For AUAAAAGCGUCAGAACUACAGAAAUGUAGUUGAAGAGGAGGAGGUUUAUGGAAUUUUCGGCGGAAGCCUCCAAA [C10U C34A C50G U65A], the kcat was 0.000166 ± 0.00014 s⁻¹. In the case of AUAAAAGCGCAAGCACUACAGAAAUGUAGUUGACGAGGAGGAGGUUUAUCGAAUUUUCGGCGGAUGCCUCCAAA [C11A A14C], the kcat is reported as 6.31e-05 ± 3.4e-06 s⁻¹. For AUAAAAGCGUCAGAACUACAGAAAUGUAGUUGACGAGGAGGAGGUUUAUCGAUUUUUCCGCGGAUGCGUCCAAA [C10U A53U G59C C68G], the kcat was under 1e-05 s⁻¹. Work on AUAAAAGCGCGAGAACUACAGAAAUGUAGUUGACGAGGAGGAGGUUUAUCGAAUUUUCGGCGGAUGACUCGAAA [C11G C67A C71G] yielded a kcat of 5.25e-05 ± 2.8e-05 s⁻¹. AUAAAAGCGCAAGAACUACAGAAAUGUAGUUGACGAGGAGGAGGUUUAUCGAAUUUUCGGCGGUUGCCUCCAAA [C11A A64U] was tested, and the kcat was under 1e-05 s⁻¹. For AUAAAAGCGCCCGAAUUACAGAAAUGUAGUUGACGAGGAGUAGGUUUAUCGAAUUUUCGGCGGAUGCCUCCAAA [A12C C16U G41U], the kcat was 0.000775 ± 0.00044 s⁻¹. With AUAAAGGCGCCAGAACUACAGAAAUGUAGUUUACGAGGAGGAGGUUUAUGGAAUUUGCGGAGGAUUCCUCCAAA [A6G G32U C50G U57G C61A G66U] the kcat was 0.000127 ± 8.5e-05 s⁻¹. In the case of AUAAAAGCGACAGAACUACAGAAAUGUAGUUGACGAGGAGGAGGUUUAUCGAAUUUUCGGCGGAUGCCUGCAAA [C10A C70G], the kcat is reported as 3.57e-05 ± 2.4e-05 s⁻¹. AUAAAAGGGACAGAACUACAGAAAUGUAGUUGACGAGGAGGAGGUUUAUCGAAUUUUCGGCGGAUGCCUCCAAA [C8G C10A] gave a kcat of under 1e-05 s⁻¹. Work on AUAAAAGCGCCGGAACUACAGAAAUGUAGUUGACGAGGAGGAGGUUUAUCGAAUUUUCGGCGGAUGCCCCCAAA [A12G U69C] yielded a kcat of 0.000893 ± 0.00026 s⁻¹. AUAAAUGCGCCAUAACUACAGAAAUGUAGUUGACGAUGAGGAGGUUUUUCGAAUUUUCGGCGGAUGCCGCCAAA [A6U G13U G37U A48U U69G] gave a kcat of 4.37e-05 ± 3.1e-05 s⁻¹. Work on AUAAAAGCGCCGGACCUACAGAAAUGUAGUUGACGAGGAGGAGGUUUAUCGAAUUUUCGGCGGAUGCCUCCAAA [A12G A15C] yielded a kcat of 0.000514 ± 0.00013 s⁻¹. AUAAAUGCGCCAGAACUACAGAAAUGUAGUUGACGAGGAGGAGGUUUAUCGAAUUUUCAGCGGAUGCCUCCAAA [A6U G59A] was tested, and the kcat was under 1e-05 s⁻¹. Work on AUAAAUGCGCCAGAACUACAGAAAUGUAGUUGACGAGGAGGAGGUUUAUGGUAUUUUCGGGGGAUGCUUCCAAA [A6U C50G A52U C61G C68U] yielded a kcat of 3.87e-05 ± 1.1e-05 s⁻¹. For AUAAAAGAGUCAGAACUACAGAAAUGUAGUUGACGAGGAGGAGGUUUAUCGAAUUUUCGGCGGAUGCAUCCAAA [C8A C10U C68A], the kcat was 3.93e-05 ± 2.6e-05 s⁻¹. Work on AUAAAAGCGCGAGAACUACAGAAAUGUAGUUGACGAGGAGGAGGUUUAUCGAAUUUUCGGCGGAUGCCUCGAAA [C11G C71G] yielded a kcat of 2.8e-05 ± 2.3e-05 s⁻¹. In the case of AUAAAAGCGUCAGAACUACAGAAAUGUAGUUGACGAGGAGGAGGUUUAUCGAAUUUUCGGCGAAUGCCUCCAAA [C10U G63A], the kcat is reported as under 1e-05 s⁻¹. AUAAAGGCGCCAGAACUACAGAAAUGUAGUUGACGAGGAGGAGGUUUAUCGAAUUUUCGGCGGAUGCCUCAAAA [A6G C71A] was tested, and the kcat was 3.93e-05 ± 3.2e-05 s⁻¹. AUAAACGCGCCAGAUCUACAGAAAUGUAGUUGACGAGGAGGAGGUUUAUCGAAUUUUCGGCGGAUGCCUCCAAA [A6C A15U] gave a kcat of 1.71e-05 ± 1.1e-05 s⁻¹.

Variants of: B1
Assay: KM; higher = weaker cofactor use; RNA array
Conditions: with glucosamine-6-phosphate
In short: as §1
Work on AUAAAAGCGCAAGCACUACAGAAAUGUAGUUGACGAGGAGGAGGUUUAUCGAAUUUUCGGCGGAUGCCUCCAAA [C11A A14C] yielded a KM of 2820 ± 410 µM. For AUAAAAGCGCCCGAAUUACAGAAAUGUAGUUGACGAGGAGUAGGUUUAUCGAAUUUUCGGCGGAUGCCUCCAAA [A12C C16U G41U], the KM was 2070 ± 2000 µM. Variant AUAAAAGCGCCGGAACUACAGAAAUGUAGUUGACGAGGAGGAGGUUUAUCGAAUUUUCGGCGGAUGCCCCCAAA [A12G U69C] has a KM of 3900 ± 1900 µM. AUAAAAGCGCCGGACCUACAGAAAUGUAGUUGACGAGGAGGAGGUUUAUCGAAUUUUCGGCGGAUGCCUCCAAA [A12G A15C] showed a KM of 14900 ± 5200 µM. For AUAAAUGCGCCAGAACUACAGAAAUGUAGUUGACGAGGAGGAGGUUUAUCGAAUUUUCAGCGGAUGCCUCCAAA [A6U G59A], the KM was 125 ± 100 µM.

Variants of: B1
Assay: self-cleavage kobs at 10000 uM GlcN6P; higher = faster cleavage; RNA array
Conditions: with glucosamine-6-phosphate
In short: as §1
AUAAAAGCGCGAGAACUACAGAAAUGUAGUUGACGAGGAGGAGGUUUAUCGAAUUUUCGGCGGAUGACUCGAAA [C11G C67A C71G] was tested, and the “self-cleavage kobs at 10000 uM GlcN6P” value was 2.54e-05 ± 1.6e-05 s⁻¹. With AUAAAAGCGACAGAACUACAGAAAUGUAGUUGACGAGGAGGAGGUUUAUCGAAUUUUCGGCGGAUGCCUGCAAA [C10A C70G] the “self-cleavage kobs at 10000 uM GlcN6P” value was 1.78e-05 ± 9e-06 s⁻¹. In the case of AUAAAAGAGUCAGAACUACAGAAAUGUAGUUGACGAGGAGGAGGUUUAUCGAAUUUUCGGCGGAUGCAUCCAAA [C8A C10U C68A], the “self-cleavage kobs at 10000 uM GlcN6P” value is reported as 2.72e-05 ± 2.4e-05 s⁻¹.

Variants of: B1
Assay: self-cleavage kobs at 40 uM GlcN6P; higher = faster cleavage; RNA array
Conditions: with glucosamine-6-phosphate
In short: as §1
With AUAAAGGCGCCAGAACUACAGAAAUGUAGUUUACGAGGAGGAGGUUUAUGGAAUUUGCGGAGGAUUCCUCCAAA [A6G G32U C50G U57G C61A G66U] the “self-cleavage kobs at 40 uM GlcN6P” value was 3e-05 ± 1.5e-05 s⁻¹. In the case of AUAAAAGAGUCAGAACUACAGAAAUGUAGUUGACGAGGAGGAGGUUUAUCGAAUUUUCGGCGGAUGCAUCCAAA [C8A C10U C68A], the “self-cleavage kobs at 40 uM GlcN6P” value is reported as 3.39e-05 ± 2.5e-05 s⁻¹.

Variants of: B1
Assay: self-cleavage kobs at 2500 uM GlcN6P; higher = faster cleavage; RNA array
Conditions: with glucosamine-6-phosphate
In short: as §1
With AUAAAAGCGACAGAACUACAGAAAUGUAGUUGACGAGGAGGAGGUUUAUCGAAUUUUCGGCGGAUGCCUGCAAA [C10A C70G] the “self-cleavage kobs at 2500 uM GlcN6P” value was 0.000324 ± 0.00018 s⁻¹. In the case of AUAAAAGAGUCAGAACUACAGAAAUGUAGUUGACGAGGAGGAGGUUUAUCGAAUUUUCGGCGGAUGCAUCCAAA [C8A C10U C68A], the “self-cleavage kobs at 2500 uM GlcN6P” value is reported as 9.63e-05 ± 5.4e-05 s⁻¹. In the case of AUAAAAGCGCGAGAACUACAGAAAUGUAGUUGACGAGGAGGAGGUUUAUCGAAUUUUCGGCGGAUGCCUCGAAA [C11G C71G], the “self-cleavage kobs at 2500 uM GlcN6P” value is reported as 2.68e-05 ± 2.3e-05 s⁻¹.

Variants of: B1
Assay: self-cleavage kobs at 160 uM GlcN6P; higher = faster cleavage; RNA array
Conditions: with glucosamine-6-phosphate
In short: as §1
For AUAAAAGCGCCGGAACUACAGAAAUGUAGUUGACGAGGAGGAGGUUUAUCGAAUUUUCGGCGGAUGCCCCCAAA [A12G U69C], the “self-cleavage kobs at 160 uM GlcN6P” value was 2.91e-05 ± 2.2e-05 s⁻¹. For AUAAAUGCGCCAGAACUACAGAAAUGUAGUUGACGAGGAGGAGGUUUAUGGUAUUUUCGGGGGAUGCUUCCAAA [A6U C50G A52U C61G C68U], the “self-cleavage kobs at 160 uM GlcN6P” value was 2.71e-05 ± 2.4e-05 s⁻¹. For AUAAAAGCGCGAGAACUACAGAAAUGUAGUUGACGAGGAGGAGGUUUAUCGAAUUUUCGGCGGAUGCCUCGAAA [C11G C71G], the “self-cleavage kobs at 160 uM GlcN6P” value was 2.41e-05 ± 1.5e-05 s⁻¹.

Variants of: B1
Assay: self-cleavage kobs at 640 uM GlcN6P; higher = faster cleavage; RNA array
Conditions: with glucosamine-6-phosphate
In short: as §1
AUAAAAGCGCCGGACCUACAGAAAUGUAGUUGACGAGGAGGAGGUUUAUCGAAUUUUCGGCGGAUGCCUCCAAA [A12G A15C] was tested, and the “self-cleavage kobs at 640 uM GlcN6P” value was 1.42e-05 ± 8.5e-06 s⁻¹. AUAAAAGAGUCAGAACUACAGAAAUGUAGUUGACGAGGAGGAGGUUUAUCGAAUUUUCGGCGGAUGCAUCCAAA [C8A C10U C68A] was tested, and the “self-cleavage kobs at 640 uM GlcN6P” value was 0.000904 ± 0.00071 s⁻¹.
